Assay results taken from paper PMC8043124 (ACS Infectious Diseases, 2021).

Columns and labels:
[1] = tested on: P. aeruginosa (strain PA14); assay: Checkerboard assay of potentiator-antibiotic pairs; format: cell-based, Pseudomonas aeruginosa; details: breakpoints for Gram-positive species (EUCAST)
[2] = tested on: P. aeruginosa clinical isolates (BWH006, BWH012, BWH013, BWH021, BWH027); assay: Checkerboard assay of potentiator-antibiotic pairs in clinical isolates; format: cell-based, Pseudomonas aeruginosa

Antibiotic MIC with WD40 relative to clinical breakpoint [1]: clinical breakpoints were met | Antibiotic MIC with WD40 relative to clinical breakpoint ([2]; 10 μM WD40, MIC95, breakpoints for Gram-positive species (EUCAST)): did not meet their clinical breakpoints | MIC of antibiotic alone ([2]; range over isolates, Figure 6 names MIC95): 1024 to 2048 mg/L
SMILES: CCC[C@@H]1C[C@@H](C(=O)N[C@@H]([C@H]2O[C@H](SC)[C@H](O)[C@@H](O)[C@H]2O)[C@H](C)Cl)N(C)C1 [clindamycin]
